Measurements as given in publication PMC5473940, “SAF-A Regulates Interphase Chromosome Structure through Oligomerization with Chromatin-Associated RNAs” (Cell, 2017).
No constants are given. Whether binding was seen depends on the method and setting. In cells and extracts the contact can be indirect. Some entries that bind do so weakly or less than the wild type.

Amino acid sequences for entries named in this document (tags omitted). A change or cut given only in a name is not applied to a line headed by its entry. Chains listed by the source or under a name are the forms on record and can include a tag or linker.
full-length SAF-A Walker B mutant, FLAG-tagged and T7-tagged copies (Flp-In T-REx 293) (Q00839-2, form named): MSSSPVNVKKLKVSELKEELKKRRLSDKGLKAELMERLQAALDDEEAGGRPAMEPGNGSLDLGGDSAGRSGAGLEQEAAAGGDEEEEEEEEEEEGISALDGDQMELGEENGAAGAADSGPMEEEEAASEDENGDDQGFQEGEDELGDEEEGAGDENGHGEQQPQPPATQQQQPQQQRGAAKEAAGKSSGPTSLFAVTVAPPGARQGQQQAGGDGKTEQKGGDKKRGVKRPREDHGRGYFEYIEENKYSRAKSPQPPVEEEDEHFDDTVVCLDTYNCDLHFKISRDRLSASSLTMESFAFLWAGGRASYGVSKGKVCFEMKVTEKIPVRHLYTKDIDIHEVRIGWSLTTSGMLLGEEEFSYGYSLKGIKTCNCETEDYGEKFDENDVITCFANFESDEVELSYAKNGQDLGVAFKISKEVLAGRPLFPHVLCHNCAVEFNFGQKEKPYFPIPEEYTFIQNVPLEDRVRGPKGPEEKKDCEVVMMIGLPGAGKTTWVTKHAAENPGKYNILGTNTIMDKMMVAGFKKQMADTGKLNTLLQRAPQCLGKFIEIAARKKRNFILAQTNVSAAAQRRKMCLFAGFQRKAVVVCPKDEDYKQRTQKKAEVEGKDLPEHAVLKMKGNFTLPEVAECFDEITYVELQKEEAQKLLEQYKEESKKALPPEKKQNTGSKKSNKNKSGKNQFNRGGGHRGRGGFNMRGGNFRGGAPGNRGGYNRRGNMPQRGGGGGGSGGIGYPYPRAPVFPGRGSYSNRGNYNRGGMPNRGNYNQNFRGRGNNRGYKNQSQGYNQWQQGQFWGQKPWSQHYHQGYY
full-length wild-type SAF-A, FLAG-tagged and T7-tagged copies (Flp-In T-REx 293) (Q00839-2, form named): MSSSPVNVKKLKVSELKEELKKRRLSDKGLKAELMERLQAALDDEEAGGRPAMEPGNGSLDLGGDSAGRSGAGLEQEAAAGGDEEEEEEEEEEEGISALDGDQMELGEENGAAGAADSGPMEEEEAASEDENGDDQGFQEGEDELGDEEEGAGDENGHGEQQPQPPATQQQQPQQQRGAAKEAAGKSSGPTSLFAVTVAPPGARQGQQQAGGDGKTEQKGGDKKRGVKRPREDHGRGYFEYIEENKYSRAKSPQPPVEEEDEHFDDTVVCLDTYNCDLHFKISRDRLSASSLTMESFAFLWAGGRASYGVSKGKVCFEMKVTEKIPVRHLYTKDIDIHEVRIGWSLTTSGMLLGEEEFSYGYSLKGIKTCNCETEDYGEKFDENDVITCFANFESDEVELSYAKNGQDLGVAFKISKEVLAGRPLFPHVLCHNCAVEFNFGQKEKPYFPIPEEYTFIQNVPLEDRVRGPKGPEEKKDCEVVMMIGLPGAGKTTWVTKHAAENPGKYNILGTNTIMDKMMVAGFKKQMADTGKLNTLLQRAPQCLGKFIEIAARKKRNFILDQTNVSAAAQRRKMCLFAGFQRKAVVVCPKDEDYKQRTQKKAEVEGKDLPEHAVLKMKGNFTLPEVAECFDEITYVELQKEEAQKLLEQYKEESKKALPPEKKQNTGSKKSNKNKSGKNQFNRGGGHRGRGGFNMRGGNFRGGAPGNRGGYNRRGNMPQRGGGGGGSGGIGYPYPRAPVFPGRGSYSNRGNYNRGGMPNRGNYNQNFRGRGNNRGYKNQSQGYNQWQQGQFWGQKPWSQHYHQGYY

Key:
[1] = target: full-length SAF-A Walker B mutant, FLAG-tagged and T7-tagged copies (Flp-In T-REx 293) (human) (UniProt Q00839); assay: proximity ligation; Duolink in situ PLA with anti-FLAG and anti-T7 in Flp-In T-REx 293 cells depleted of endogenous SAF-A, expressing FLAG-tagged and T7-tagged SAF-A; also after α-amanitin for 5 hr (number of signals significantly decreased)
[2] = target: full-length wild-type SAF-A, FLAG-tagged and T7-tagged copies (Flp-In T-REx 293) (human) (UniProt Q00839); assay: as above

Substance	binding [1]	binding [2]
full-length SAF-A Walker B mutant, FLAG-tagged and T7-tagged copies (Flp-In T-REx 293) (from UniProt Q00839-2 1-806)	binds	–
full-length wild-type SAF-A, FLAG-tagged and T7-tagged copies (Flp-In T-REx 293) (from UniProt Q00839-2 1-806)	–	binds
